Test results as given in publication PMC12663309.
No constants are given. Whether binding was seen depends on the method and setting. For some of these results: Binding seen in cells or lysates may run through a third protein. Some entries that bind do so weakly or less than the wild type. Blank lines part the entries; values can stand above or below the binder they belong to.

Protein sequences, listed by entry. Tags and fused reporters are not part of them.
UniProt Q8TDX7: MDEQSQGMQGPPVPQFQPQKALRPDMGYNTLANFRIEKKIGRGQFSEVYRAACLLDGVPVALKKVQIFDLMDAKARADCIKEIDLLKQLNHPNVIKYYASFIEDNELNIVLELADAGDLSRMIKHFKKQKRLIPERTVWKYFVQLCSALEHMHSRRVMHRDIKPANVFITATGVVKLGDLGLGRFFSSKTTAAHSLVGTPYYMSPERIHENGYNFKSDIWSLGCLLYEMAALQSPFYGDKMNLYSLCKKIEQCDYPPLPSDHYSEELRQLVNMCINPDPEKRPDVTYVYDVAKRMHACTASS
UniProt Q9ES74: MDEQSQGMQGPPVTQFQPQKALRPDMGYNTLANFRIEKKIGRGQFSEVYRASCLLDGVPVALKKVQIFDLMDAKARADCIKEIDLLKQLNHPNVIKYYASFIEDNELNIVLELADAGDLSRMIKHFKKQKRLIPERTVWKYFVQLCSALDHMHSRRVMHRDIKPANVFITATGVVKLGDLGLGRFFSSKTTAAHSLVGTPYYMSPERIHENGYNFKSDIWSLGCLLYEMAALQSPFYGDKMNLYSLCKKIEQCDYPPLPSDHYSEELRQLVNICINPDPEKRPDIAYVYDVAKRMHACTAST

Key:
[1] = molecular target: NIMA-related kinase 7 (NEK7), endogenous, HepG2 mitochondria (human (endogenous in HepG2)) (UniProt Q8TDX7); test: co-IP; isolated mitochondrial proteins (at least 1 ug/uL) incubated with NEK7 antibody or IgG 2-4 h at room temperature, magnetic beads at 4 C overnight; western blot; mouse primary hepatocytes, AML-12 cells and HepG2 cells
[2] = molecular target: human NEK7 recombinant protein (HY-P75935, MCE) (human) (UniProt Q8TDX7); test: MST; Monolith NT.115; NEK7 labelled with RED-NHS dye, 25 nM; SDHB titrated, highest concentration 16.5 uM; MO.Affinity Analysis v2.3; both purified
[3] = molecular target: NIMA-related kinase 7 (NEK7), mouse, endogenous (mouse (endogenous in AML-12 cells and mouse primary hepatocytes)) (UniProt Q9ES74); test: co-IP; isolated mitochondrial proteins of AML-12 cells and mouse primary hepatocytes incubated with NEK7 antibody (Abcam) or IgG, agarose magnetic beads, western blotting for NEK7 and SDHB
[4] = molecular target: NEK7, endogenous, mouse hepatocytes (mouse (endogenous in primary hepatocytes and AML-12)) (UniProt Q9ES74); test: co-IP; isolated mitochondrial proteins (at least 1 ug/uL) incubated with NEK7 antibody or IgG 2-4 h at room temperature, magnetic beads at 4 C overnight; western blot; mouse primary hepatocytes, AML-12 cells and HepG2 cells

B2: human SDHB recombinant protein (Ag29868, Proteintech) (protein, UniProt P21912 29-280)
chain: AQTAAATAPRIKKFAIYRWDPDKAGDKPHMQTYEVDLNKCGPMVLDALIKIKNEVDSTLTFRRSCREGICGSCAMNINGGNTLACTRRIDTNLNKVSKIYPLPHMYVIKDLVPDLSNFYAQYKSIEPYLKKKDESQEGKQQYLQSIEEREKLDGLYECILCACCSTSCPSYWWNGDKYLGPAVLMQAYRWMIDSRDDFTEERLAKLQDPFSLYRCHTIMNCTRTCPKGLNPGKAIAEIKKMMATYKEKKASV
binding [2]: binds

B4: SDHB, endogenous, mouse hepatocytes (protein, UniProt Q9CQA3 31-282)
chain: AQTAAAAAPRIKKFAIYRWDPDKTGDKPRMQTYEVDLNKCGPMVLDALIKIKNEVDSTLTFRRSCREGICGSCAMNINGGNTLACTRRIDTDLSKVSKIYPLPHMYVIKDLVPDLSNFYAQYKSIEPYLKKKDESQEGKQQYLQSIEDREKLDGLYECILCACCSTSCPSYWWNGDKYLGPAVLMQAYRWMIDSRDDFTEERLAKLQDPFSVYRCHTIMNCTQTCPKGLNPGKAIAEIKKMMATYKEKRALA
binding [4]: binds

The next lines start with the values.

binding [1]: binds
B1: succinate dehydrogenase complex iron sulfur subunit B (SDHB), endogenous, HepG2 mitochondria (protein, UniProt P21912 29-280)
chain: B2 chain

binding [3]: binds
B3: succinate dehydrogenase complex iron sulfur subunit B (SDHB), mouse, endogenous (protein, UniProt Q9CQA3 31-282)
chain: B4 chain
